# Primary screen of a compound library

Data taken from ChEMBL document CHEMBL3988442, “University of Dundee, Small-Polar-MMV Screening Library” (2021).

A: 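Whole-cell assay for inhibitors of Mycobacterium tuberculosis growth, labelled Cornell in the record; the read-out is not stated. The concentration is filed as 10 mM, unlikely as a test dose, so the dose is not known. The record gives no direction; compounds strong in two other growth screens of this library score well above the rest, so higher reads as stronger inhibition. Of about 53,000 compounds tested this way, about 900 (1.7%) reached 50% or more in at least one test.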
B: 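Assay on Mycobacterium tuberculosis, filed only as a heat shock assay from Cornell; the read-out is not stated. The concentration is filed as 10 mM, unlikely as a test dose, so the dose is not known. Direction is inferred from retests: higher values go with stronger inhibition. Size under these conditions: about 69,000 compounds, about 930 of them at 50% or above in at least one test.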

The filed quantity is “Percent Effect” (%).
How 0% and 100% were set is not recorded. Most values in the screen are low, and negative values occur.
This is an unselected part of the compounds tested.
A dash means the value is not listed here; it may have been measured.

| # | Compound | A | B |
|---|---|---|---|
| 1 | `Cc1cccc2cc(CN3CCC(O)(CN4CCCC4)CC3)c(=O)[nH]c12` | -35.3 | -14.82 |
| 2 | `CCC(C)(C)NC(=O)c1ccc(NC(=O)NCc2cc(C)no2)cc1` | -5.564 | -2.412 |
| 3 | `Cc1cnc(NC(C)Cc2cnccn2)nc1N(C)C` (stereo not given) | 27.86 | 2.485 |
| 4 | `CC(Cn1cccn1)NCc1csc(-c2ccc(F)cc2)n1` (stereo not given) | 35.16 | 41.6 |
| 5 | `O=C(NCCN1CCOCC1)c1cc(Cl)c2c(c1)OCCCO2` | - | 6.022 |
| 6 | `Cc1ccc(NC(=O)CNc2ccn(CC(N)=O)n2)c(Cl)c1` | 6.662 | -11.67 |
| 7 | `COC(=O)C1CCN(c2cncc(-n3nc(C)cc3C)n2)CC1` | 25.06 | 3.87 |
| 8 | `Cc1cnc(CC2COCCN(C(=O)c3cncnc3)C2)cn1` (stereo not given) | 18.26 | -8.594 |
| 9 | `[H][C@@]12CN(CC3CCCCC3)CC[C@]1([H])N(C(C)=O)C[C@H]2c1ccsc1` | -25.04 | -10.42 |
| 10 | `CCC(C)(NCc1nnc(C(C)(C)C)o1)c1nccs1` (stereo not given) | -13.89 | 2.063 |
| 11 | `Cc1nc2cc(C(=O)N3C[C@@H](C(=O)O)[C@H](C4CC4)C3)ccc2[nH]1` | -7.31 | 7.626 |
| 12 | `CNc1cc(C)nc(N2C[C@@H](C(=O)O)[C@H](C3CC3)C2)n1` | - | -2.027 |
| 13 | `CN(CCNc1ncc2c(n1)CCN2c1ccccc1)S(C)(=O)=O` | - | 23.83 |
| 14 | `CCc1ccc(S(=O)(=O)N2CCC3(CC(C(=O)NC)=NO3)C2)cc1` (stereo not given) | 5.515 | 13.61 |
| 15 | `O=C(Cn1c(=O)oc2ccccc21)N1Cc2cnn(CCO)c2C1` | - | 2.942 |
| 16 | `CCS(=O)(=O)N1CCC(c2cc3n(n2)[C@@H](C(F)(F)F)C[C@@H](C)N3)CC1` | 8.595 | -9.493 |
| 17 | `Cc1ccc2c(n1)N(CCn1cccn1)CCN(S(C)(=O)=O)C2.O=C(O)C(F)(F)F` | - | -25.1 |
| 18 | `O=C(c1cccs1)N1CCC2(CC1)CN(c1cncnc1)C(=O)CO2` | -47.52 | 2.545 |
| 19 | `COCCN1CCc2cc(C(=O)NCC3CC3)c(NC(C)C)nc2CC1.O=C(O)C(F)(F)F.O=C(O)C(F)(F)F` | 42.31 | -5.993 |
| 20 | `[H][C@]12CC[C@]([H])(CN(Cc3cccnc3)C1)N(C(=O)CC1CCCCC1)C2` | - | 5.602 |
| 21 | `Cc1cnn(CC2CCCCN2Cc2nnsc2Cl)c1` (stereo not given) | - | 4.673 |
| 22 | `CO[C@H]1CN(C(=O)c2nc(-c3ccccc3)[nH]c2C)CC[C@H]1N` | - | -32.57 |
| 23 | `O=C(O)C(F)(F)F.[H][C@@]12CCN(S(=O)(=O)c3cccs3)C[C@]1([H])[C@@H](CN(C)C)OC2` | -11.05 | -9.907 |
| 24 | `O=S(=O)(c1cncc(F)c1)N1CCC2(CCOC2)C1` (stereo not given) | 25.19 | -3.301 |
| 25 | `Cc1nc(CC(=O)N(C)C2CCCN(CCc3ccccc3)C2)cs1` (stereo not given) | - | -4.753 |
| 26 | `[H][C@]12CCN(S(=O)(=O)c3cccs3)C[C@@]1([H])OCCN(C(C)=O)C2` | 11.29 | 7.601 |
| 27 | `CC(c1nc(C2CC2)no1)N1CCN(Cc2ccc(C#N)cc2)CC1` (stereo not given) | -18.06 | -1.127 |
| 28 | `Cc1nn(C)c(C)c1C1CCCN1C(=O)Cc1cn2ccsc2n1` (stereo not given) | -6.475 | 7.527 |
| 29 | `O=C(Cn1cccn1)Nc1ccc(N2CCOCC2)cc1` | -0.1133 | -1.074 |
| 30 | `O=C(Cc1ccccc1Cl)N1CCCC(n2cncn2)C1` (stereo not given) | 8.359 | 2.361 |
| 31 | `CCCc1noc(CN2CCCC2c2ccsc2)n1` (stereo not given) | 52.86 | 4.131 |
| 32 | `OCc1cnc(Nc2ccccc2)nc1` | 0.3131 | -4.053 |
| 33 | `O=c1c2cnc(N3CCCC3)nc2ccn1-c1cccc(F)c1` | -29.17 | 8.161 |
| 34 | `CNC(=O)c1cccc(NC(=O)NC(C)c2cc(C)oc2C)c1C` (stereo not given) | -21.02 | 8.476 |
| 35 | `c1coc(-c2noc(CN3CCCCC3Cn3cncn3)n2)c1` (stereo not given) | - | -15.72 |
| 36 | `CC1CCCCN1C(=O)COc1nc(Cc2ccc(F)cc2)no1` (stereo not given) | -36.23 | 10.85 |
| 37 | `CC(C)(C)c1cc(CN2CCOCC(O)C2)n[nH]1` (stereo not given) | - | -32.99 |
| 38 | `CCC(CO)N(Cc1ccco1)C(=O)c1sccc1NC(C)=O` (stereo not given) | - | -28.57 |
| 39 | `COCCNC(=O)C(C)n1nc(-c2ccc(C)o2)cc(N)c1=O` (stereo not given) | -59.92 | -23.48 |
| 40 | `CCOc1cc(Cl)ccc1CNC(=O)N1CCCC(CO)C1` (stereo not given) | - | 9.786 |
| 41 | `Cc1nccc(NCc2cncc3c2CCN(CC2CCOC2)C3)n1.Cl.Cl` (stereo not given) | -11.34 | 4.721 |
| 42 | `[H][C@@]12CO[C@@H](CNC(=O)c3nccn3C)[C@]1([H])CCN(S(C)(=O)=O)C2` | -18.07 | 8.562 |